# Measurements taken from patent US11084790B2, “Insoluble complex or solvate thereof, pharmaceutical composition and use thereof” (Fruithy Holdings Limited, priority 2017, dated 2021).
# At least one compound was matched to its structure with a doubt left.
# Assay: Test on the solubility in a simulated body fluid
# Type: physicochemical
# Conditions: simulated body fluid medium; remains stable
# Description: Test on the Solubility in a Simulated Body Fluid
# The concentration of the drug dissolved in the PBS buffered solution was determined with an HPLC-a method.
smiles,measurement,value
CCCCN1CCCCC1C(=O)Nc1c(C)cccc1C.CCCCN1CCCCC1C(=O)Nc1c(C)cccc1C.O=C(O)c1cc2ccccc2c(Cc2c(O)c(C(=O)O)cc3ccccc23)c1O [bis(bupivacaine) pamoate],ratio of acid radical and basic group in the solution,2:1
